Publication PMC7797037
Results are given in words; binding and its absence hold for the method and conditions named. In cells and extracts the contact can be indirect. Some entries that bind do so weakly or less than the wild type. For part of these data: Where a sequence is shown, tags or fusion partners need not be part of it.

Sequences of proteins named here, by UniProt entry; tags and fusion partners are left off. A change or cut given only in a name is not applied to a line headed by its entry.
UniProt A4D1E9: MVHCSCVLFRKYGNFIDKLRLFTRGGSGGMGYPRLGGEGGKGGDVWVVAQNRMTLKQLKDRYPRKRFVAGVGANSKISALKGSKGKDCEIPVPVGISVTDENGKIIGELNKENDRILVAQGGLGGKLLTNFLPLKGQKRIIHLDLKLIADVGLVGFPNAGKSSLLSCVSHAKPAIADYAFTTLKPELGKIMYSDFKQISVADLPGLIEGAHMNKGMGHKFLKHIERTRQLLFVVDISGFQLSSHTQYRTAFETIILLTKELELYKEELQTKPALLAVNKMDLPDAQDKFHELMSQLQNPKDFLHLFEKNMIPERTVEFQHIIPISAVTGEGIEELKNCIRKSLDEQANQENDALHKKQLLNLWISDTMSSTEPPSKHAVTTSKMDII
UniProt Q7Z6M4: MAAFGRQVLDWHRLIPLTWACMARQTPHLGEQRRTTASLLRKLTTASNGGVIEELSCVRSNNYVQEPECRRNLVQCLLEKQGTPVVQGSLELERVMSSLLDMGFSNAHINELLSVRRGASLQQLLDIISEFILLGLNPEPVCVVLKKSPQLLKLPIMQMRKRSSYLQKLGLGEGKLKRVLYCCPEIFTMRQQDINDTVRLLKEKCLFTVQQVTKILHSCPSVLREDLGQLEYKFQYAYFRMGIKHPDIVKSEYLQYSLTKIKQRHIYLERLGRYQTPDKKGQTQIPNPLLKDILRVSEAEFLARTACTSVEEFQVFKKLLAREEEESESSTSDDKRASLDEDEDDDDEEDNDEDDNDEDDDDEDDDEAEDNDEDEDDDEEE

Legend:
[1] = biological target: T1, GTPBP5::FLAG (C-terminal FLAG-tagged GTPBP5) (human) (UniProt Q9H4K7); assay: co-IP; FLAG-IP from mitochondrial lysate, buffers with 5 mM MgCl2, elution with 3X FLAG peptide; input and eluate by western blot; no nucleotide or RNase added
T1 sequence: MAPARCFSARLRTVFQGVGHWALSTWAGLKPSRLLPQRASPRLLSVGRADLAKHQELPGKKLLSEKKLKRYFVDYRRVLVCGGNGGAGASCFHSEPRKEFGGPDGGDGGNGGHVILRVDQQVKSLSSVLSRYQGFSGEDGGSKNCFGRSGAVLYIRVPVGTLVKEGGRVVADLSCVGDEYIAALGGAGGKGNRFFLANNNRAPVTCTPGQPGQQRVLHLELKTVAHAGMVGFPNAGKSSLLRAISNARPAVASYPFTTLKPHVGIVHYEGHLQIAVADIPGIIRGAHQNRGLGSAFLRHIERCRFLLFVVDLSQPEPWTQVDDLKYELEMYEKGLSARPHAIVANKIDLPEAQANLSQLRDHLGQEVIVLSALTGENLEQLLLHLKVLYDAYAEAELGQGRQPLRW

[2] = biological target: T1, GTPBP5::FLAG (C-terminal FLAG-tagged GTPBP5) (human); assay: co-IP; FLAG-IP as above with 20 mM GMPPNP added to the mitochondrial lysate during lysis before the IP; western blot
[3] = biological target: T1, GTPBP5::FLAG (C-terminal FLAG-tagged GTPBP5) (human); assay: condition: only lysate pre-treated with RNase A (20 μg/ml); co-IP; FLAG-IP as above from mitochondrial lysate pre-treated with RNase A (20 μg/ml) during lysis before the IP; western blot
[4] = biological target: T2, GTPBP5^S238A::FLAG (human) (UniProt Q9H4K7); assay: co-IP; FLAG-IP from mitochondrial lysate, buffers with 5 mM MgCl2, elution with 3X FLAG peptide; input and eluate by western blot; no nucleotide or RNase added
T2 sequence: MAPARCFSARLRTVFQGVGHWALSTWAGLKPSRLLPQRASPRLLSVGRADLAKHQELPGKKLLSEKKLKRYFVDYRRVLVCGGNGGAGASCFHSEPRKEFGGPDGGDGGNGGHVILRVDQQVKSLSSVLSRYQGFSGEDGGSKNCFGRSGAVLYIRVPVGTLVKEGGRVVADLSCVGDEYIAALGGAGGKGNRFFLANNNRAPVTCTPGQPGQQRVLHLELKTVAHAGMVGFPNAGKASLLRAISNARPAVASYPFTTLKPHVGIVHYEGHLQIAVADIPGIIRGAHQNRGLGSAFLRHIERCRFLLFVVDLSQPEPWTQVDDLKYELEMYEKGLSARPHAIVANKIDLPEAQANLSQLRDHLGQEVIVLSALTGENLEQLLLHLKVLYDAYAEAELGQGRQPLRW

[5] = biological target: GTPBP10::FLAG (human) (UniProt A4D1E9); assay: as above
[6] = biological target: GTPBP10::FLAG (human) (UniProt A4D1E9); assay: co-IP; FLAG-IP as above with 20 mM GMPPNP added to the mitochondrial lysate during lysis before the IP; western blot
[7] = biological target: GTPBP10::FLAG (human) (UniProt A4D1E9); assay: co-IP; FLAG-IP as above from lysates preincubated with GTP instead of GMPPNP; western blot
[8] = biological target: T1, GTPBP5::FLAG (C-terminal FLAG-tagged GTPBP5) (human); assay: co-IP; FLAG-IP from mitochondrial lysate, buffers with 5 mM MgCl2, elution with 3X FLAG peptide; input and eluate by western blot; no nucleotide or RNase added; remark: listed apart in the source

Q: How did the binding [1] turn out when bL28m (from UniProt Q13084 56-256) was run?
A: binds

Q: What about the binding [2] of the same molecule?
A: no binding (condition: with 20 mM GMPPNP)

Q: What about the binding [3] of the same molecule?
A: no binding

Q: For “MTERF4:NSUN4 complex (from UniProt Q7Z6M4 43-381; Q96CB9 26-384)”, which binding [4] is on record?
A: no binding

Q: What about the binding [5] of the same molecule?
A: no binding

Q: And the binding [6]?
A: no binding

Q: What about the binding [7] of the same molecule?
A: no binding

B1: MRM3 (enzyme, UniProt Q9HC36 41-420)
chain: VFPSGEVVEQKRAPGKQPRKAPSEASAQEQREKQPLEESASRAPSTWEESGLRYDKAYPGDRRLSSVMTIVKSRPFREKQGKILLEGRRLISDALKAGAVPKMFFFSRLEYLKELPVDKLKGVSLIKVKFEDIKDWSDLVTPQGIMGIFAKPDHVKMTYPKTQLQHSLPLLLICDNLRDPGNLGTILRSAAGAGCSKVLLTKGCVDAWEPKVLRAGMGAHFRMPIINNLEWETVPNYLPPDTRVYVADNCGLYAQAEMSNKASDHGWVCDQRVMKFHKYEEEEDVETGASQDWLPHVEVQSYDSDWTEAPAAVVIGGETYGVSLESLQLAESTGGKRLLIPVVPGVDSLNSAMAASILLFEGKRQLRGRAEDLSRDRSYH
Q: For B1, which binding [8] is on record?
A: no binding

B2: FASTKD4 (protein, UniProt Q969Z0 108-631)
chain: SHLLSEKPEDKGLLIQDAHFHQLLCLLNSQIASVWHGTLSKLLGSLYALGIPKASKELQSVEQEVRWRMRKLKYKHLAFLAESCATLSQEQHSQELLAELLTHLERRWTEIEDSHTLVTVMMKVGHLSEPLMNRLEDKCLELVEHFGPNELRKVLVMLAAQSRRSVPLLRAISYHLVQKPFSLTKDVLLDVAYAYGKLSFHQTQVSQRLATDLLSLMPSLTSGEVAHCAKSFALLKWLSLPLFEAFAQHVLNRAQDITLPHLCSVLLAFARLNFHPDQEDQFFSLVHEKLGSELPGLEPALQVDLVWALCVLQQAREAELQAVLHPEFHIQFLGGKSQKDQNTFQKLLHINATALLEYPEYSGPLLPASAVAPGPSALDRKVTPLQKELQETLKGLLGSADKGSLEVATQYGWVLDAEVLLDSDGEFLPVRDFVAPHLAQPTGSQSPPPGSKRLAFLRWEFPNFNSRSKDLLGRFVLARRHIVAAGFLIVDVPFYEWLELKSEWQKGAYLKDKMRKAVAEELAK
Q: For B2, which binding [8] is on record?
A: no binding
